PubChem BioAssay AID1224827, NIAID, 2016
In all, the deposit lists about 3,800 reagents; below is a random part of them. Over the whole deposit, about 2,200 (57%) were called active. 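Active means a strong reporter change in either direction; calls are per siRNA, not per gene; qiagen siRNAs gave weaker effects.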 Reagents against one gene are numbered here.

Assay: 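Retest primary hits on a TNF reporter with six siRNAs per gene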 (follow-up of hits)
Cell system: RAW264.7 G9 mouse macrophage reporter clone
Reagents: single siRNA against mouse genes, 100 nM siRNA
Time to read-out: siRNA for 2 days, then LPS about 16 h
Treatment: bacterial lipopolysaccharide (LPS), 10 ng/ml, cells fixed after overnight (about 16 h) stimulation
Detection: 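TNF promoter reporter red fluorescence in nuclei, background subtracted, normalised per plate and to non-targeting control siRNA, as z-scores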
Direction: TNF reporter z-score, mean and TNF reporter z-score: higher = stronger Tnf promoter reporter signal; gene median z, three same-vendor siRNAs: higher = stronger Tnf reporter signal for the gene
Rule for the call: 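An siRNA is called active when its mean z-score over replicates is at least +2 or at most -2; control wells get no call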

gene,reagent,"TNF reporter z-score, mean","gene median z, three same-vendor siRNAs","TNF reporter z-score, repeat 1","TNF reporter z-score, repeat 2",outcome
Spag1,1,-3.52,-4.2,-4.07,-2.98,active
Spag1,2,-4.2,-4.2,-4.27,-4.13,active
Spag1,3,-6.28,-4.2,-5.05,-7.51,active
Spag1,4,3.89,-2.31,7.39,0.387,active
Spag1,5,-2.43,-2.31,-2.44,-2.42,active
Spag1,6,-2.56,-2.31,-2.2,-2.93,active
Thap11,1,-4.77,-5.09,-4.61,-4.92,active
Thap11,2,-5.18,-5.09,-5.12,-5.25,active
Thap11,3,-5.38,-5.09,-5.06,-5.69,active
Thap11,4,0.72,-0.745,1.57,-0.127,inactive
Thap11,5,-0.745,-0.745,-0.522,-0.969,inactive
Thap11,6,-2.73,-0.745,-3.04,-2.43,active
Trip12,1,-2.51,-3.65,-2.85,-2.17,active
Trip12,2,-3.79,-3.65,-4.5,-3.09,active
Trip12,3,-4.27,-3.65,-4.34,-4.2,active
Trip12,4,6.03,2.93,8.72,3.35,active
Trip12,5,2.33,2.93,3.89,0.76,active
Trip12,6,0.976,2.93,2.51,-0.56,inactive
Slc5a7,1,1.32,-2.6,0.17,2.46,inactive
Slc5a7,2,-2.6,-2.6,-3.37,-1.84,active
Slc5a7,3,-4.87,-2.6,-4.51,-5.24,active
Slc5a7,4,2.68,0.205,4.72,0.648,active
Slc5a7,5,-0.785,0.205,-0.238,-1.33,inactive
Slc5a7,6,-0.508,0.205,1.01,-2.02,inactive

Ordered by “gene median z, three same-vendor siRNAs” (lowest first): some entries from above
gene,reagent,"TNF reporter z-score, mean","gene median z, three same-vendor siRNAs","TNF reporter z-score, repeat 1","TNF reporter z-score, repeat 2",outcome
Thap11,1,-4.77,-5.09,-4.61,-4.92,active
Spag1,5,-2.43,-2.31,-2.44,-2.42,active
Spag1,6,-2.56,-2.31,-2.2,-2.93,active
